PMC8115264, “Mitofusin-2 stabilizes adherens junctions and suppresses endothelial inflammation via modulation of β-catenin signaling” (Nature Communications, 2021)
No constants are given. Whether binding was seen depends on the method and setting. In cells and extracts the contact can be indirect. Some entries that bind do so weakly or less than the wild type. For some assays here: Sequences can lack the tags named with a protein.

Key:
[1] = target: T1, Mitofusin-2 (human (endogenous in HLMVECs)) (UniProt O95140); assay: co-IP; lysate of confluent HLMVECs (50 mM HEPES pH 7.5, 120 mM NaCl, 5 mM EDTA, 1% Triton X-100); immunoprecipitation with 1 µg Mfn2 antibody, Western blot for VE-cadherin or β-catenin; resting cells, also cells treated with TNFα (10 ng/mL, 6 h), H2O2 (500 µM, 30 min), NAC pretreatment (20 mM, 30 min) or Mfn2 shRNA
T1 sequence: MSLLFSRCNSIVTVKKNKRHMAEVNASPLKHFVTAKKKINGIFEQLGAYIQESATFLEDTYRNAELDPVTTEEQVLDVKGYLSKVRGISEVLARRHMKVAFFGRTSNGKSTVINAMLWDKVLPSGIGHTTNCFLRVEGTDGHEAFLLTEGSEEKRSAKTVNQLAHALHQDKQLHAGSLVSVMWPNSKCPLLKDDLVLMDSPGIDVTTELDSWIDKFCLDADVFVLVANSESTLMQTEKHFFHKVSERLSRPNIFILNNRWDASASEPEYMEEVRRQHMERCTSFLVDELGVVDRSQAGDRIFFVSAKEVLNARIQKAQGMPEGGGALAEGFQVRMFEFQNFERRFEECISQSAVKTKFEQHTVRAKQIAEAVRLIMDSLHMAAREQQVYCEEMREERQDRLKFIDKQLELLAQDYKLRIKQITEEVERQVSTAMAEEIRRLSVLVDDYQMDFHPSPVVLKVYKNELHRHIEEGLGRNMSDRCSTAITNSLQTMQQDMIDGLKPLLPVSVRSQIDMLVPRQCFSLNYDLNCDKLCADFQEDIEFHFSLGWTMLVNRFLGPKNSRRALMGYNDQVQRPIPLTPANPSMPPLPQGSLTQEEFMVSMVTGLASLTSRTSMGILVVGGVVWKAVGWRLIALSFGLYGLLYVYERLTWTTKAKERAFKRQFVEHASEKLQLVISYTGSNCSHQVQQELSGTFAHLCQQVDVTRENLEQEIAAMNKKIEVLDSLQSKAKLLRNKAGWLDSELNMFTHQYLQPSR

[2] = target: T2, vascular endothelial (VE)-cadherin (human (endogenous in HLMVECs)), P33151; assay: proximity ligation; in situ PLA (Duolink) on confluent HLMVECs with or without TNFα (10 ng/mL) for 6 h; mouse VE-cadherin or mouse Mfn2 antibody with rabbit β-catenin antibody; settings: remark: other sources report otherwise
T2 chain: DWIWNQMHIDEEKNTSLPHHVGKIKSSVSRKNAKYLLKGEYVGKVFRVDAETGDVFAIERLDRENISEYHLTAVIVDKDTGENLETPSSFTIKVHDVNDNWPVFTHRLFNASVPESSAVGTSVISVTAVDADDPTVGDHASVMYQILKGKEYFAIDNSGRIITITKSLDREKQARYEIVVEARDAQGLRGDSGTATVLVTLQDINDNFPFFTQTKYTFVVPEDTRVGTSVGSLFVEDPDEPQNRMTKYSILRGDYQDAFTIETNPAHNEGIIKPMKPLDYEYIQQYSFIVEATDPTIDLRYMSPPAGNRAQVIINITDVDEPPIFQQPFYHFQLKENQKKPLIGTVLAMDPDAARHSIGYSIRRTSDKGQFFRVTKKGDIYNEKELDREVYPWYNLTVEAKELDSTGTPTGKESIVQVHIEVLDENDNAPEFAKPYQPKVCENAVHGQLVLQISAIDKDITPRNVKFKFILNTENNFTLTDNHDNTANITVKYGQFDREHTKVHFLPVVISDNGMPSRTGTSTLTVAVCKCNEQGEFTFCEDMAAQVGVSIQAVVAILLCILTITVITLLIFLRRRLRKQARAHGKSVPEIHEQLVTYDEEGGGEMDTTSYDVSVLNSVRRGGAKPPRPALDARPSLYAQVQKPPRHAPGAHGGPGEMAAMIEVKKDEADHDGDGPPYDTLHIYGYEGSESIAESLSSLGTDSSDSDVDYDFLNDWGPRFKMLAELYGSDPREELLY

B1: vascular endothelial (VE)-cadherin (protein, UniProt P33151 48-784)
chain: DWIWNQMHIDEEKNTSLPHHVGKIKSSVSRKNAKYLLKGEYVGKVFRVDAETGDVFAIERLDRENISEYHLTAVIVDKDTGENLETPSSFTIKVHDVNDNWPVFTHRLFNASVPESSAVGTSVISVTAVDADDPTVGDHASVMYQILKGKEYFAIDNSGRIITITKSLDREKQARYEIVVEARDAQGLRGDSGTATVLVTLQDINDNFPFFTQTKYTFVVPEDTRVGTSVGSLFVEDPDEPQNRMTKYSILRGDYQDAFTIETNPAHNEGIIKPMKPLDYEYIQQYSFIVEATDPTIDLRYMSPPAGNRAQVIINITDVDEPPIFQQPFYHFQLKENQKKPLIGTVLAMDPDAARHSIGYSIRRTSDKGQFFRVTKKGDIYNEKELDREVYPWYNLTVEAKELDSTGTPTGKESIVQVHIEVLDENDNAPEFAKPYQPKVCENAVHGQLVLQISAIDKDITPRNVKFKFILNTENNFTLTDNHDNTANITVKYGQFDREHTKVHFLPVVISDNGMPSRTGTSTLTVAVCKCNEQGEFTFCEDMAAQVGVSIQAVVAILLCILTITVITLLIFLRRRLRKQARAHGKSVPEIHEQLVTYDEEGGGEMDTTSYDVSVLNSVRRGGAKPPRPALDARPSLYAQVQKPPRHAPGAHGGPGEMAAMIEVKKDEADHDGDGPPYDTLHIYGYEGSESIAESLSSLGTDSSDSDVDYDFLNDWGPRFKMLAELYGSDPREELLY
binding [1]: binds

B2: β-catenin (natural protein, human (endogenous in HLMVECs), UniProt P35222 1-781, looked up)
chain: MATQADLMELDMAMEPDRKAAVSHWQQQSYLDSGIHSGATTTAPSLSGKGNPEEEDVDTSQVLYEWEQGFSQSFTQEQVADIDGQYAMTRAQRVRAAMFPETLDEGMQIPSTQFDAAHPTNVQRLAEPSQMLKHAVVNLINYQDDAELATRAIPELTKLLNDEDQVVVNKAAVMVHQLSKKEASRHAIMRSPQMVSAIVRTMQNTNDVETARCTAGTLHNLSHHREGLLAIFKSGGIPALVKMLGSPVDSVLFYAITTLHNLLLHQEGAKMAVRLAGGLQKMVALLNKTNVKFLAITTDCLQILAYGNQESKLIILASGGPQALVNIMRTYTYEKLLWTTSRVLKVLSVCSSNKPAIVEAGGMQALGLHLTDPSQRLVQNCLWTLRNLSDAATKQEGMEGLLGTLVQLLGSDDINVVTCAAGILSNLTCNNYKNKMMVCQVGGIEALVRTVLRAGDREDITEPAICALRHLTSRHQEAEMAQNAVRLHYGLPVVVKLLHPPSHWPLIKATVGLIRNLALCPANHAPLREQGAIPRLVQLLVRAHQDTQRRTSMGGTQQQFVEGVRMEEIVEGCTGALHILARDVHNRIVIRGLNTIPLFVQLLYSPIENIQRVAAGVLCELAQDKEAAEAIEAEGATAPLTELLHSRNEGVATYAAAVLFRMSEDKPQDYKKRLSVELTSSLFRTEPMAWNETADLGLDIGAQGEPLGYRQDDPSYRSFHSGGYGQDALGMDPMMEHEMGGHHPGADYPVDGLPDLGHAQDLMDGLPPGDSNQLAWFDTDL
notes: β-catenin, endogenous in human lung microvascular endothelial cells; also called beta-catenin; source: endogenous, HLMVEC lysate or fixed HLMVECs
binding [2]: binds
